Positions count from the first letter of the chain named.
How the values were obtained:
[1] = molecular target: T1, fluorescein-labeled Hsp90 peptide (fluorescein label (position not given)); test: fluorescence anisotropy; protein titrated into 50 nM fluorescein-labeled Hsp90 peptide
T1 construct: also called target peptide; C-terminal peptide of Hsp90
T1 peptide: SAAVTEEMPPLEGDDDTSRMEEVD
Procedure: (§1) In addition, the ligand binding activity of the tested proteins was studied by using CC1-CTPR390, CC1-TPR2A, CC1-TPR2A_T332R_D334K proteins and its target peptide. […] Fluorescence intensities were recorded in a Perkin Elmer Fluorimeter equipped with excitation and emission polarizers. Excitation was accomplished with a 5 nm slit width at 492 nm and the emission recorded at 516 nm with slit width of 5 nm. […]

[2] = molecular target: T1, fluorescein-labeled Hsp90 peptide; test: fluorescence anisotropy with fluorescein-labeled Hsp90 peptide; protein-stabilised gold nanocluster complex
Procedure: as §1
Finally, fluorescence anisotropy was used to monitor the interaction between the CC1-CTPR390-AuNCs, CC1-TPR2A-AuNCs and CC1-TPR2A_T332R_D334K-AuNCs complexes and a fluorescein-labeled Hsp90 peptide to determine the corresponding Kd value.

B1: CC1-TPR2A (designed binder)
chain: AEAWCNLGCAYYKQGDYDEAIEYYQKALELDPRSACAWYCLGNAYYKQGDYDEAIEYYQKALELDPRSALAEKNLGNAYYKQKDFDTALKHYDKAKELDPTNMTYITNQAAVYFEKGDYNKCRELCEKAIEVGRENREDYRQIAKAYARIGNSYFKEEKYKDAIHFYNKSLAEHRTPDVLKKCQQAEKILKEQ
notes: CC1 Cys-clamp module fused to the Hsp90 recognition domain TPR2A
For B1, the Kd [1] was 5 µM.

B2: CC1-TPR2A-AuNCs (designed binder)
chain: B1 chain
modifications: gold nanocluster (AuNC) stabilised on the protein (CC1 4-Cys clamp)
With B2 the Kd [2] was ~5 µM.

B3: CC1-TPR2A_T332R_D334K-AuNCs (designed binder)
chain: B1 chain with T176R, D178K
modifications: gold nanocluster (AuNC) stabilised on the protein (CC1 4-Cys clamp)
For B3, the Kd [2] was ~0.055 µM.

B4: CC1-TPR2A_T332R_D334K (designed binder)
chain: B1 chain with T176R, D178K
For B4, the Kd [1] was 0.055 µM.
